Test results published in PMC2215330.
These are yes or no findings as the source states them, for the method shown. Binding seen in cells or lysates may run through a third protein. Some entries that bind do so weakly or less than the wild type.

Sequences of proteins named here, by UniProt entry; tags and fusion partners are left off.
UniProt F5HCV3: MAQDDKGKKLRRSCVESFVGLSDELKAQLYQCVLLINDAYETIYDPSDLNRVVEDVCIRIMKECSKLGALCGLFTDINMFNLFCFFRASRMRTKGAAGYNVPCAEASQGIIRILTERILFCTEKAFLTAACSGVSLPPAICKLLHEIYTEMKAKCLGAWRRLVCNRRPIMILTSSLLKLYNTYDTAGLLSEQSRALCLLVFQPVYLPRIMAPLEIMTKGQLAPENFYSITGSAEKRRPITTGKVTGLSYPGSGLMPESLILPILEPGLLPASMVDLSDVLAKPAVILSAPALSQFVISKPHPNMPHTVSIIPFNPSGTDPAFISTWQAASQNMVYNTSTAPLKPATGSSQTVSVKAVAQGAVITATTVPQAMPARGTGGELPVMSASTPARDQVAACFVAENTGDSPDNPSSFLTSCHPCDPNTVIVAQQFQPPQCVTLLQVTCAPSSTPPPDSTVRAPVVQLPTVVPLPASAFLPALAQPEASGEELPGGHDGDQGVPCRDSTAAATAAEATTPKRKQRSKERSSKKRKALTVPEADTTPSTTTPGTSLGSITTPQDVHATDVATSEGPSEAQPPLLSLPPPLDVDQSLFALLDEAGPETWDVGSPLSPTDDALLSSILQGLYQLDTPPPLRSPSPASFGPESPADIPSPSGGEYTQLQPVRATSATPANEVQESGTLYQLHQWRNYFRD

Tests used:
Assay in all cases: co-IP
[1] = target: KSHV replication and transcription activator (K-RTA), endogenous in induced BC1 cells (Kaposi's sarcoma-associated herpesvirus (endogenous in BC1)) (UniProt F5HCV3)
[2] = target: FLAG-EBV-Z-DL (EBV-Z with deletion of the leucine zipper region) (Epstein-Barr virus) (UniProt P03206)
[3] = target: EBV BZLF1 gene product (EBV-Z), endogenous in induced BC1 cells (Epstein-Barr virus (endogenous in BC1)) (UniProt P03206)

## EBV BZLF1 gene product (EBV-Z), endogenous in induced BC1 cells (from UniProt P03206 1-245)
[1]
  binding: binds

## K-RTA (wild type, from expression plasmid) (from UniProt F5HCV3 1-691)
[2]
  binding: no binding

## KSHV replication and transcription activator (K-RTA), endogenous in induced BC1 cells (from UniProt F5HCV3 1-691)
[3]
  binding: binds
